Article PMC4014440
These are yes or no findings as the source states them, for the method shown. Binding seen in cells or lysates may run through a third protein. Here binding means that the protein was enriched with, or labelled near, the bait; the list need not be complete.

Sequences of proteins named here, by UniProt entry; tags and fusion partners are left off.
UniProt Q17551: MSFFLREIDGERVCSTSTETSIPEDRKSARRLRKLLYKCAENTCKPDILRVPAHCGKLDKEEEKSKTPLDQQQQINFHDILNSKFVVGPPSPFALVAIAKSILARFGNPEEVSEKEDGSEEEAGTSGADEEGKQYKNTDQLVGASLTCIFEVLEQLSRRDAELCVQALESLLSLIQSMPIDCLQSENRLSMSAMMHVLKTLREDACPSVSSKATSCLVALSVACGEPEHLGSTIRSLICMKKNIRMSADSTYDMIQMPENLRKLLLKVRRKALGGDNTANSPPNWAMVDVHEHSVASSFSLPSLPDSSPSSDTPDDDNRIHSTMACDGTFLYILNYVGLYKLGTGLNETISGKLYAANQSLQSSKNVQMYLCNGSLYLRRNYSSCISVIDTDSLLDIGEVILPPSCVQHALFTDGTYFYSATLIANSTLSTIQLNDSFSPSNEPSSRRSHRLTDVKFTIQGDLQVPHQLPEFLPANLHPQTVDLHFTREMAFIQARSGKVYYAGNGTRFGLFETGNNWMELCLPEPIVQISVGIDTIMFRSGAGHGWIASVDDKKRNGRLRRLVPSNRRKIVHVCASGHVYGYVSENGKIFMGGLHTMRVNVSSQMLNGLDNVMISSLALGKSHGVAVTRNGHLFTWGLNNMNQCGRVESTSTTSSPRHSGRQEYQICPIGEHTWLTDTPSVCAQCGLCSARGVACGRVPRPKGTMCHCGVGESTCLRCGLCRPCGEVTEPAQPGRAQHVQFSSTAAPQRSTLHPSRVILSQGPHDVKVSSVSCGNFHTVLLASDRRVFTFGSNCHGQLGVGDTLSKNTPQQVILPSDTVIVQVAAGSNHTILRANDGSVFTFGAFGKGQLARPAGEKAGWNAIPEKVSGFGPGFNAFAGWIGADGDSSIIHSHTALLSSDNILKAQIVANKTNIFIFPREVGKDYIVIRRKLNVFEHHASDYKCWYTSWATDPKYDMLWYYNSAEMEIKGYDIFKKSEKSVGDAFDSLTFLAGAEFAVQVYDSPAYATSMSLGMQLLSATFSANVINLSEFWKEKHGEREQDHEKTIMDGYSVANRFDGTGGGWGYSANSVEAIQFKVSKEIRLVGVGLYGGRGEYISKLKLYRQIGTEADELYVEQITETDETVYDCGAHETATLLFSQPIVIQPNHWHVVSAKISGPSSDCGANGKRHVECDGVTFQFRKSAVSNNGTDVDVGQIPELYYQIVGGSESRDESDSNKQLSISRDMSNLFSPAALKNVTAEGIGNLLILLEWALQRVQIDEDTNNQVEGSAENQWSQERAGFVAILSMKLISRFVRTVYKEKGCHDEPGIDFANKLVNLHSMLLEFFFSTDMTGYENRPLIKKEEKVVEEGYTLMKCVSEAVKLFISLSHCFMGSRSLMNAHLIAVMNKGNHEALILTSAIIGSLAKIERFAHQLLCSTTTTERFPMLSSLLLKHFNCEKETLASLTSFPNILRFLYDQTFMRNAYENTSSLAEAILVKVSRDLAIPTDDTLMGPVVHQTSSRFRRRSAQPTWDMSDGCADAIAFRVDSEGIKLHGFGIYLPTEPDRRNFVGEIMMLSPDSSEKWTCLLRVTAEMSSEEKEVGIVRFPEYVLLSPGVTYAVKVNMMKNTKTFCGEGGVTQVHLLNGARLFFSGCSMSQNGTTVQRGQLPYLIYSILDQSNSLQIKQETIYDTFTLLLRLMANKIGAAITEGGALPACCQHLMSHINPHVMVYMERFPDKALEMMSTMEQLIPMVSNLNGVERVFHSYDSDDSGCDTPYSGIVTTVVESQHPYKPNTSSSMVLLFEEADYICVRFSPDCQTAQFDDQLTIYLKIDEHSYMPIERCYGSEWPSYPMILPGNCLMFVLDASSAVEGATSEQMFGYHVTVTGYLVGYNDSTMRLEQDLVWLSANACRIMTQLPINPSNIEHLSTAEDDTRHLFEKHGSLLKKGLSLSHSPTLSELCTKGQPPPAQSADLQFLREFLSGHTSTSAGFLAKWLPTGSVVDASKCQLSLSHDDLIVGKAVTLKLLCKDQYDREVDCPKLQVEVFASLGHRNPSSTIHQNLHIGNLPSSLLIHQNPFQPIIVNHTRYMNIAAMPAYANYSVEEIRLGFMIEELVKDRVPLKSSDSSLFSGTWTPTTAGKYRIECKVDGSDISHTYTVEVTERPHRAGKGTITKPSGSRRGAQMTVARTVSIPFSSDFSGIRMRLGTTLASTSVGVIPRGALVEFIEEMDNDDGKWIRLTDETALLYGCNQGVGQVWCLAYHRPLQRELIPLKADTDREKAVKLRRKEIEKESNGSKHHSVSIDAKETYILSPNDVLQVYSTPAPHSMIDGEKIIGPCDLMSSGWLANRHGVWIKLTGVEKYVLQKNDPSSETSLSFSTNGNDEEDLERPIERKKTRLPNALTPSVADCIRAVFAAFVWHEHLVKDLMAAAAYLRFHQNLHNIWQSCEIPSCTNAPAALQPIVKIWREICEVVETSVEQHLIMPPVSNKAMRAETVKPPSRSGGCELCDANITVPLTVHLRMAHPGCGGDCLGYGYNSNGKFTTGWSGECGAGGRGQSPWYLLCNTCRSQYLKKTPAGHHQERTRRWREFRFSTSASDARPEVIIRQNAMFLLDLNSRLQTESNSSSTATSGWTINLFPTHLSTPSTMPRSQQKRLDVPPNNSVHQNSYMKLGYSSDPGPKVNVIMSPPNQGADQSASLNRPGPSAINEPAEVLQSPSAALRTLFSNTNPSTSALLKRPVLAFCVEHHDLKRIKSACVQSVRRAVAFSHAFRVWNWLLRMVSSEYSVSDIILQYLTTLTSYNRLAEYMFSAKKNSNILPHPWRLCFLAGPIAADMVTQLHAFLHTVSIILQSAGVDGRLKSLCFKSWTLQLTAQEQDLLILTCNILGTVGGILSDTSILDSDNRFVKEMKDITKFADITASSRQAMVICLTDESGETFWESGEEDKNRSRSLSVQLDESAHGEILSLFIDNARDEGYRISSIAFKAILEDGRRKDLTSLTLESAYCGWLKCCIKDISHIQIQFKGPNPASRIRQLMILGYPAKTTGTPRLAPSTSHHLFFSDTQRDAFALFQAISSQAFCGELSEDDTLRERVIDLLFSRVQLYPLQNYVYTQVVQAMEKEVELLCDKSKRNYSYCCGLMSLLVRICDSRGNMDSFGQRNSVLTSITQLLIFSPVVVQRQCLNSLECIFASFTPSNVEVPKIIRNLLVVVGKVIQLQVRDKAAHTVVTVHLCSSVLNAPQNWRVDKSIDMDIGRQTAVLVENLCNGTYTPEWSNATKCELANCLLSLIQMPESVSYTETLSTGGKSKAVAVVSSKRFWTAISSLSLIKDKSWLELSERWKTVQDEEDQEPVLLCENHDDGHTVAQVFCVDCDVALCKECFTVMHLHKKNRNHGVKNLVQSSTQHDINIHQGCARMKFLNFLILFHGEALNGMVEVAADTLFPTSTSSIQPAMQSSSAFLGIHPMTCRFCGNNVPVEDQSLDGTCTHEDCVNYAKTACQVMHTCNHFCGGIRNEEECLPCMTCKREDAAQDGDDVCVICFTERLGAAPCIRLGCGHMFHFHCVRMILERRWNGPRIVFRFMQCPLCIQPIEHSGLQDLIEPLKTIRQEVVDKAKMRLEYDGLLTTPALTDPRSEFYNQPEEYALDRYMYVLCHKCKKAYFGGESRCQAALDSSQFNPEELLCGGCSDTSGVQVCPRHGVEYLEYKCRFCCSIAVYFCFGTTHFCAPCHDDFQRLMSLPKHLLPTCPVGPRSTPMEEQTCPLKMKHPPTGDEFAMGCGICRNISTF

Biological target: RPM-1::GFP (fusion protein of Regulator of Presynaptic Morphology 1 and GFP) (C. elegans) (UniProt Q17551)
Experiment: affinity purification with mass spectrometry; RPM-1::GFP immunoprecipitated with anti-GFP antibody (3E6) from whole worm lysates (0.1% NP-40 lysis buffer, 10 mM Tris pH 7.4, 150 mM NaCl, 1 mM DTT); coprecipitating proteins identified by LC-MS/MS

binding: binds
B1: Protein Phosphatase Magnesium/Manganese dependent 2 (PPM-2), endogenous (enzyme, UniProt P49596 1-356)
chain: MGQTLSEPVTKKESASCANENYLVGSSCMQGWRVDMEDAHTHLLSLPDDPKCAFFAVYDGHGGSKVSQYSGINLHKKVVAQKEFSEGNMKEAIEKGFLELDQQMRVDEETKDDVSGTTAVVVLIKEGDVYCGNAGDSRAVSSVVGEARPLSFDHKPSHETEARRIIAAGGWVEFNRVNGNLALSRALGDFAFKNCDTKPAEEQIVTAFPDVITDKLTPDHEFIVLACDGIWDVMTNQEVVDFVREKLAEKRDPQSICEELLTRCLAPDCQMGGLGCDNMTVVLVGLLHGQSPDTLFTKCARPAVFTGVNNEDGDQNQIQQDISRVINNFDGEQRVNAANQEEEEDDNEPAPANFQV
modifications: N-myristoylation of glycine 2 (detected on a PPM-2 peptide by mass spectrometry)
